According to paper PMC12462987:
No constants are given. Whether binding was seen depends on the method and setting. For part of these data: Binding seen in cells or lysates may run through a third protein. Some entries that bind do so weakly or less than the wild type. Each block holds one molecule with its values, some of them ahead of it.

Sequences of proteins named here, by UniProt entry; tags and fusion partners are left off. A change or cut given only in a name is not applied to a line headed by its entry. Residues count along the entry.
UniProt P43268: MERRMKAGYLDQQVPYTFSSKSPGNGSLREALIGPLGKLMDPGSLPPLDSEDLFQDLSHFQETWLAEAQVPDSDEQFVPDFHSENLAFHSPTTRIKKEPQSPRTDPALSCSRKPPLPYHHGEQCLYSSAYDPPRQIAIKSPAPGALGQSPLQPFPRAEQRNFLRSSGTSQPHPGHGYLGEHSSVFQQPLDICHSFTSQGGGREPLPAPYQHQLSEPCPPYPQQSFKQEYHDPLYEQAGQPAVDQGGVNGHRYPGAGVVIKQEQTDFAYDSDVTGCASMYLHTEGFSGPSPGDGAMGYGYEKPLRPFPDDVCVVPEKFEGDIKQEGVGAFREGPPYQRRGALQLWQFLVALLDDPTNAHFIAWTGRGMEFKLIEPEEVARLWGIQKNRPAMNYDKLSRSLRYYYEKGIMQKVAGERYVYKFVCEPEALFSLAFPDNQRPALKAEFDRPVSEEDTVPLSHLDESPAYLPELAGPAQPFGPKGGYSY
UniProt P49736: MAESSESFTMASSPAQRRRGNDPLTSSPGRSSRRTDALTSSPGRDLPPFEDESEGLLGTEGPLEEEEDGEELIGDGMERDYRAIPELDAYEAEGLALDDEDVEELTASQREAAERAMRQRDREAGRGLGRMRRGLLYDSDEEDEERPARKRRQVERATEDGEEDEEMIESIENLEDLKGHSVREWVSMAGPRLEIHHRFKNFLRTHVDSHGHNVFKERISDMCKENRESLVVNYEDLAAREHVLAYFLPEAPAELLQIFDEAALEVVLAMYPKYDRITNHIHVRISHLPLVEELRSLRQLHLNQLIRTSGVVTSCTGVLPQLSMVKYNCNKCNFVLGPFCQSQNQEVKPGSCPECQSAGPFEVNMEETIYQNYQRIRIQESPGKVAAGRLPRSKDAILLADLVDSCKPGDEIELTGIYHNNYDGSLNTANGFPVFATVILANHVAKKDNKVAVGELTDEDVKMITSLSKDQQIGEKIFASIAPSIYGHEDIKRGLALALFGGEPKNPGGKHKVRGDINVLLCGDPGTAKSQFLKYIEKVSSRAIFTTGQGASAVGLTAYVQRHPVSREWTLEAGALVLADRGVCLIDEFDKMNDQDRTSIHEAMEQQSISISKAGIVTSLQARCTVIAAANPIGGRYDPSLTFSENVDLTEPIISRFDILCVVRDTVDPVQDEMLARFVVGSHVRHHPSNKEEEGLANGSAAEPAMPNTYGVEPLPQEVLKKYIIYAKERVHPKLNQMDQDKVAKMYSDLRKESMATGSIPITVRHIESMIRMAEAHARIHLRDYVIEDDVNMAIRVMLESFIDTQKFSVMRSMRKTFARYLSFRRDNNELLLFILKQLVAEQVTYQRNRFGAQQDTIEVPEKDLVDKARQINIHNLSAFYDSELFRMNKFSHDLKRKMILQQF
UniProt Q08945: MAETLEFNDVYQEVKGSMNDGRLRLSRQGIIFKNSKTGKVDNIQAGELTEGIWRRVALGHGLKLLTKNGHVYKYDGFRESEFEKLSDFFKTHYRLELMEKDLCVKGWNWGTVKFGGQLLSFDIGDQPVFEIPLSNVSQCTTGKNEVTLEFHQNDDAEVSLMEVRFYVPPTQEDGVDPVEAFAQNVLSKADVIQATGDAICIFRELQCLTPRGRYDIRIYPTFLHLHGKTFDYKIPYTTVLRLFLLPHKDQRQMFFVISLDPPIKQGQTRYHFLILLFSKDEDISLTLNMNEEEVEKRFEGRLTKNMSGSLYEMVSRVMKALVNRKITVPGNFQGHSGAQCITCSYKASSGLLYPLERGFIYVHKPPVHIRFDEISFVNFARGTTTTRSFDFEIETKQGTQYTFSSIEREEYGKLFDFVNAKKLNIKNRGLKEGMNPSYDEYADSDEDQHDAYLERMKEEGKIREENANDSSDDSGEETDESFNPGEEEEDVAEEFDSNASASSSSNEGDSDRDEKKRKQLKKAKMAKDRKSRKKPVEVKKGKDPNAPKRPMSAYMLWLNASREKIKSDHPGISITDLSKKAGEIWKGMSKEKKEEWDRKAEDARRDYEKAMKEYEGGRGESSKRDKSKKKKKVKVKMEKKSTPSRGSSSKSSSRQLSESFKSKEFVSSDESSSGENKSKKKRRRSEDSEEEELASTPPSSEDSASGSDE
UniProt Q9Y5B9, residues 1-510: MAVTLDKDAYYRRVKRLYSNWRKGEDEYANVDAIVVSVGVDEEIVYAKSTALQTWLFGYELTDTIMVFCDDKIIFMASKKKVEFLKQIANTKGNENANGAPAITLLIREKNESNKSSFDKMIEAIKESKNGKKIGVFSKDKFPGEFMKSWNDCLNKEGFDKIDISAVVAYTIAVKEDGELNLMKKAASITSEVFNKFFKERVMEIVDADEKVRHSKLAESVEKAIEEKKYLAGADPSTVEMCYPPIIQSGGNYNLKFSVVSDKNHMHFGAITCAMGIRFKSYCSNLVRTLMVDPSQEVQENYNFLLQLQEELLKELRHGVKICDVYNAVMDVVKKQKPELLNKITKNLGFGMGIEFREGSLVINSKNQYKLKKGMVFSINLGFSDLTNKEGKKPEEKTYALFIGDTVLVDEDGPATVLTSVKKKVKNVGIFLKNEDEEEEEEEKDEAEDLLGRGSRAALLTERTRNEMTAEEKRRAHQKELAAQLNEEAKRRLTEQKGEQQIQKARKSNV

What was measured:
[1] = target: His-ETV4, purified protein (UniProt P43268); assay: pull-down; purified proteins mixed with 10 µg His-ETV4 and Ni-NTA agarose; three washes; Western blot with anti-tag antibody; both purified
[2] = target: His-ETV4, purified protein (UniProt P43268); assay: pull-down; 20 µg purified His-histone H3 or His-ETV4 on Ni-NTA His-bind resin incubated with RIPA lysates of A549 or H1299 cells, 4 °C, 6 h; Western blot; only the target purified
[3] = target: Flag-tagged full-length ETV4 (FL, 1-484aa) (UniProt P43268); assay: co-IP; HEK293T transfected with one tagged protein (Flag-ETV4 constructs, HA-MCM2 constructs or His-histone H3); anti-Flag, anti-HA or anti-His IP from RIPA lysate; immunoblot of the partner proteins of the lysate
HA-tagged MCM2-FL = HA-tagged MCM2-FL (UniProt P49736); assay: as above
[4] = target: ETV4 (ETS transcription factor ETV4), endogenous (human (endogenous in A549, H1299, HEK293T)) (UniProt P43268); assay: co-IP; IP of the endogenous protein (anti-ETV4, anti-SSRP1 or anti-SUPT16H) from whole-cell RIPA lysates of A549 and H1299 cells, 4 °C overnight, Protein A/G Plus-Agarose, immunoblot; also cells synchronised by double thymidine block and released
[5] = target: ETV4 (ETS transcription factor ETV4), endogenous (human (endogenous in A549, H1299, HEK293T)) (UniProt P43268); assay: co-IP; IP of endogenous ETV4 from chromatin-bound (Chrom.) proteins of A549 and H1299 cells, immunoblot
[6] = target: ETV4 (ETS transcription factor ETV4), endogenous (human (endogenous in A549, H1299, HEK293T)) (UniProt P43268); assay: co-IP; IP of the endogenous protein (anti-ETV4, anti-SSRP1 or anti-SUPT16H) from whole-cell RIPA lysates of A549 and H1299 cells, 4 °C overnight, Protein A/G Plus-Agarose, immunoblot; also cells synchronised by double thymidine block and released; remark: listed apart in the source

Molecule: Flag-tag SSRP1, purified protein (from UniProt Q08945 1-709)
binding [1]: binds

Molecule: GST-tag SUPT16H (1-510aa), purified protein (from UniProt Q9Y5B9 1-510) (domain or fragment)
binding [1]: binds

B2: ORC2, endogenous (protein, UniProt Q13416 1-577)
chain: MSKPELKEDKMLEVHFVGDDDVLNHILDREGGAKLKKERAQLLVNPKKIIKKPEYDLEEDDQEVLKDQNYVEIMGRDVQESLKNGSATGGGNKVYSFQNRKHSEKMAKLASELAKTPQKSVSFSLKNDPEITINVPQSSKGHSASDKVQPKNNDKSEFLSTAPRSLRKRLIVPRSHSDSESEYSASNSEDDEGVAQEHEEDTNAVIFSQKIQAQNRVVSAPVGKETPSKRMKRDKTSDLVEEYFEAHSSSKVLTSDRTLQKLKRAKLDQQTLRNLLSKVSPSFSAELKQLNQQYEKLFHKWMLQLHLGFNIVLYGLGSKRDLLERFRTTMLQDSIHVVINGFFPGISVKSVLNSITEEVLDHMGTFRSILDQLDWIVNKFKEDSSLELFLLIHNLDSQMLRGEKSQQIIGQLSSLHNIYLIASIDHLNAPLMWDHAKQSLFNWLWYETTTYSPYTEETSYENSLLVKQSGSLPLSSLTHVLRSLTPNARGIFRLLIKYQLDNQDNPSYIGLSFQDFYQQCREAFLVNSDLTLRAQLTEFRDHKLIRTKKGTDGVEYLLIPVDNGTLTDFLEKEEEEA
binding [6]: no binding

B4: ORC3, endogenous (protein, UniProt Q9UBD5 1-711)
chain: MATSSMSKGCFVFKPNSKKRKISLPIEDYFNKGKNEPEDSKLRFETYQLIWQQMKSENERLQEELNKNLFDNLIEFLQKSHSGFQKNSRDLGGQIKLREIPTAALVLGVNVTDHDLTFGSLTEALQNNVTPYVVSLQAKDCPDMKHFLQKLISQLMDCCVDIKSKEEESVHVTQRKTHYSMDSLSSWYMTVTQKTDPKMLSKKRTTSSQWQSPPVVVILKDMESFATKVLQDFIIISSQHLHEFPLILIFGIATSPIIIHRLLPHAVSSLLCIELFQSLSCKEHLTTVLDKLLLTTQFPFKINEKVLQVLTNIFLYHDFSVQNFIKGLQLSLLEHFYSQPLSVLCCNLPEAKRRINFLSNNQCENIRRLPSFRRYVEKQASEKQVALLTNERYLKEETQLLLENLHVYHMNYFLVLRCLHKFTSSLPKYPLGRQIRELYCTCLEKNIWDSEEYASVLQLLRMLAKDELMTILEKCFKVFKSYCENHLGSTAKRIEEFLAQFQSLDETKEEEDASGSQPKGLQKTDLYHLQKSLLEMKELRRSKKQTKFEVLRENVVNFIDCLVREYLLPPETQPLHEVVYFSAAHALREHLNAAPRIALHTALNNPYYYLKNEALKSEEGCIPNIAPDICIAYKLHLECSRLINLVDWSEAFATVVTAAEKMDANSATSEEMNEIIHARFIRAVSELELLGFIKPTKQKTDHVARLTWGGC
binding [6]: binds

Second part, the molecule after the results:

binding [2]: binds
binding [3]: binds
binding (HA-tagged MCM2-FL): binds
binding [4]: binds
Molecule: SSRP1 (FACT subunit), endogenous (from UniProt Q08945 1-709)

binding [1]: binds
Molecule: Flag-tag MCM2 (1-440aa), purified protein (from UniProt P49736 1-440) (domain or fragment)

binding [5]: binds
binding [6]: binds
B1: MCM6, endogenous (protein, UniProt Q14566 1-821)
chain: MDLAAAAEPGAGSQHLEVRDEVAEKCQKLFLDFLEEFQSSDGEIKYLQLAEELIRPERNTLVVSFVDLEQFNQQLSTTIQEEFYRVYPYLCRALKTFVKDRKEIPLAKDFYVAFQDLPTRHKIRELTSSRIGLLTRISGQVVRTHPVHPELVSGTFLCLDCQTVIRDVEQQFKYTQPNICRNPVCANRRRFLLDTNKSRFVDFQKVRIQETQAELPRGSIPRSLEVILRAEAVESAQAGDKCDFTGTLIVVPDVSKLSTPGARAETNSRVSGVDGYETEGIRGLRALGVRDLSYRLVFLACCVAPTNPRFGGKELRDEEQTAESIKNQMTVKEWEKVFEMSQDKNLYHNLCTSLFPTIHGNDEVKRGVLLMLFGGVPKTTGEGTSLRGDINVCIVGDPSTAKSQFLKHVEEFSPRAVYTSGKASSAAGLTAAVVRDEESHEFVIEAGALMLADNGVCCIDEFDKMDVRDQVAIHEAMEQQTISITKAGVKATLNARTSILAAANPISGHYDRSKSLKQNINLSAPIMSRFDLFFILVDECNEVTDYAIARRIVDLHSRIEESIDRVYSLDDIRRYLLFARQFKPKISKESEDFIVEQYKHLRQRDGSGVTKSSWRITVRQLESMIRLSEAMARMHCCDEVQPKHVKEAFRLLNKSIIRVETPDVNLDQEEEIQMEVDEGAGGINGHADSPAPVNGINGYNEDINQESAPKASLRLGFSEYCRISNLIVLHLRKVEEEEDESALKRSELVNWYLKEIESEIDSEEELINKKRIIEKVIHRLTHYDHVLIELTQAGLKGSTEGSESYEEDPYLVVNPNYLLED

binding [5]: binds
binding [6]: binds
B3: MCM3, endogenous (protein, UniProt P25205 1-808)
chain: MAGTVVLDDVELREAQRDYLDFLDDEEDQGIYQSKVRELISDNQYRLIVNVNDLRRKNEKRANRLLNNAFEELVAFQRALKDFVASIDATYAKQYEEFYVGLEGSFGSKHVSPRTLTSCFLSCVVCVEGIVTKCSLVRPKVVRSVHYCPATKKTIERRYSDLTTLVAFPSSSVYPTKDEENNPLETEYGLSVYKDHQTITIQEMPEKAPAGQLPRSVDVILDDDLVDKAKPGDRVQVVGTYRCLPGKKGGYTSGTFRTVLIACNVKQMSKDAQPSFSAEDIAKIKKFSKTRSKDIFDQLAKSLAPSIHGHDYVKKAILCLLLGGVERDLENGSHIRGDINILLIGDPSVAKSQLLRYVLCTAPRAIPTTGRGSSGVGLTAAVTTDQETGERRLEAGAMVLADRGVVCIDEFDKMSDMDRTAIHEVMEQGRVTIAKAGIHARLNARCSVLAAANPVYGRYDQYKTPMENIGLQDSLLSRFDLLFIMLDQMDPEQDREISDHVLRMHRYRAPGEQDGDAMPLGSAVDILATDDPNFSQEDQQDTQIYEKHDNLLHGTKKKKEKMVSAAFMKKYIHVAKIIKPVLTQESATYIAEEYSRLRSQDSMSSDTARTSPVTARTLETLIRLATAHAKARMSKTVDLQDAEEAVELVQYAYFKKVLEKEKKRKKRSEDESETEDEEEKSQEDQEQKRKRRKTRQPDAKDGDSYDPYDFSDTEEEMPQVHTPKTADSQETKESQKVELSESRLKAFKVALLDVFREAHAQSIGMNRLTESINRDSEEPFSSVEIQAALSKMQDDNQVMVSEGIIFLI

binding [5]: binds
binding [6]: binds
B5: MCM5, endogenous (protein, UniProt P33992 1-734)
chain: MSGFDDPGIFYSDSFGGDAQADEGQARKSQLQRRFKEFLRQYRVGTDRTGFTFKYRDELKRHYNLGEYWIEVEMEDLASFDEDLADYLYKQPAEHLQLLEEAAKEVADEVTRPRPSGEEVLQDIQVMLKSDASPSSIRSLKSDMMSHLVKIPGIIIAASAVRAKATRISIQCRSCRNTLTNIAMRPGLEGYALPRKCNTDQAGRPKCPLDPYFIMPDKCKCVDFQTLKLQELPDAVPHGEMPRHMQLYCDRYLCDKVVPGNRVTIMGIYSIKKFGLTTSRGRDRVGVGIRSSYIRVLGIQVDTDGSGRSFAGAVSPQEEEEFRRLAALPNVYEVISKSIAPSIFGGTDMKKAIACLLFGGSRKRLPDGLTRRGDINLLMLGDPGTAKSQLLKFVEKCSPIGVYTSGKGSSAAGLTASVMRDPSSRNFIMEGGAMVLADGGVVCIDEFDKMREDDRVAIHEAMEQQTISIAKAGITTTLNSRCSVLAAANSVFGRWDETKGEDNIDFMPTILSRFDMIFIVKDEHNEERDVMLAKHVITLHVSALTQTQAVEGEIDLAKLKKFIAYCRVKCGPRLSAEAAEKLKNRYIIMRSGARQHERDSDRRSSIPITVRQLEAIVRIAEALSKMKLQPFATEADVEEALRLFQVSTLDAALSGTLSGVEGFTSQEDQEMLSRIEKQLKRRFAIGSQVSEHSIIKDFTKQKYPEHAIHKVLQLMLRRGEIQHRMQRKVLYRLK
